Results are given in words; binding and its absence hold for the method and conditions named. In cells and extracts the contact can be indirect. Some results given as binding are weak or reduced against the parent protein; the word gives no strength.
Biological target: Protein arginine methyltransferase 6 (human (endogenous in LN229 and U251)) (UniProt Q96LA8)
Experiment: co-IP; lysates of LN229 and U251 cells in IP lysis buffer, pre-cleared, primary antibody overnight at 4 °C, Protein G Sepharose, three washes, Western blot

By UniProt entry, the sequences of proteins in these tests, tags left out.
UniProt Q96LA8: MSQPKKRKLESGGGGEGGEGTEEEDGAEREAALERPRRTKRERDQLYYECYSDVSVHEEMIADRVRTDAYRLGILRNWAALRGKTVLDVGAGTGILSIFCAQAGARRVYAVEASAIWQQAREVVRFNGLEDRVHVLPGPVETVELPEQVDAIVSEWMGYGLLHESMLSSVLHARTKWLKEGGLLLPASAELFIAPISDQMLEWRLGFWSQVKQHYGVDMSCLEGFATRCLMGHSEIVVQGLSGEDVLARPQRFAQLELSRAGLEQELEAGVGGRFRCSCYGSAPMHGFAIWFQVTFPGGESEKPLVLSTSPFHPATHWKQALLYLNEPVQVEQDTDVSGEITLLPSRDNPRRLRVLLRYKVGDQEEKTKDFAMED
UniProt P50750: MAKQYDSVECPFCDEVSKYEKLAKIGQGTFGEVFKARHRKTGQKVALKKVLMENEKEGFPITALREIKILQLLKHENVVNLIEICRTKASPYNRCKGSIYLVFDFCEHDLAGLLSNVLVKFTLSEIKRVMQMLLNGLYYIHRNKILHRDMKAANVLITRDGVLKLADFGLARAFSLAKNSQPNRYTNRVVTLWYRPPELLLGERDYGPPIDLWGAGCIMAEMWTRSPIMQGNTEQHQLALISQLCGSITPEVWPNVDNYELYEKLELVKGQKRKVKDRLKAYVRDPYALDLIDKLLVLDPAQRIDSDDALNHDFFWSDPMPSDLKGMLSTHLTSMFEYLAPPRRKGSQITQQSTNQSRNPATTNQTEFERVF

CDK9 (from UniProt P50750 1-372) (enzyme)
binding: binds
